Data taken from patent US20220023384A1.
Results are given in words; binding and its absence hold for the method and conditions named. In cells and extracts the contact can be indirect. Some entries that bind do so weakly or less than the wild type.

Protein sequences, listed by entry. Tags and fused reporters are not part of them.
UniProt E9Q401: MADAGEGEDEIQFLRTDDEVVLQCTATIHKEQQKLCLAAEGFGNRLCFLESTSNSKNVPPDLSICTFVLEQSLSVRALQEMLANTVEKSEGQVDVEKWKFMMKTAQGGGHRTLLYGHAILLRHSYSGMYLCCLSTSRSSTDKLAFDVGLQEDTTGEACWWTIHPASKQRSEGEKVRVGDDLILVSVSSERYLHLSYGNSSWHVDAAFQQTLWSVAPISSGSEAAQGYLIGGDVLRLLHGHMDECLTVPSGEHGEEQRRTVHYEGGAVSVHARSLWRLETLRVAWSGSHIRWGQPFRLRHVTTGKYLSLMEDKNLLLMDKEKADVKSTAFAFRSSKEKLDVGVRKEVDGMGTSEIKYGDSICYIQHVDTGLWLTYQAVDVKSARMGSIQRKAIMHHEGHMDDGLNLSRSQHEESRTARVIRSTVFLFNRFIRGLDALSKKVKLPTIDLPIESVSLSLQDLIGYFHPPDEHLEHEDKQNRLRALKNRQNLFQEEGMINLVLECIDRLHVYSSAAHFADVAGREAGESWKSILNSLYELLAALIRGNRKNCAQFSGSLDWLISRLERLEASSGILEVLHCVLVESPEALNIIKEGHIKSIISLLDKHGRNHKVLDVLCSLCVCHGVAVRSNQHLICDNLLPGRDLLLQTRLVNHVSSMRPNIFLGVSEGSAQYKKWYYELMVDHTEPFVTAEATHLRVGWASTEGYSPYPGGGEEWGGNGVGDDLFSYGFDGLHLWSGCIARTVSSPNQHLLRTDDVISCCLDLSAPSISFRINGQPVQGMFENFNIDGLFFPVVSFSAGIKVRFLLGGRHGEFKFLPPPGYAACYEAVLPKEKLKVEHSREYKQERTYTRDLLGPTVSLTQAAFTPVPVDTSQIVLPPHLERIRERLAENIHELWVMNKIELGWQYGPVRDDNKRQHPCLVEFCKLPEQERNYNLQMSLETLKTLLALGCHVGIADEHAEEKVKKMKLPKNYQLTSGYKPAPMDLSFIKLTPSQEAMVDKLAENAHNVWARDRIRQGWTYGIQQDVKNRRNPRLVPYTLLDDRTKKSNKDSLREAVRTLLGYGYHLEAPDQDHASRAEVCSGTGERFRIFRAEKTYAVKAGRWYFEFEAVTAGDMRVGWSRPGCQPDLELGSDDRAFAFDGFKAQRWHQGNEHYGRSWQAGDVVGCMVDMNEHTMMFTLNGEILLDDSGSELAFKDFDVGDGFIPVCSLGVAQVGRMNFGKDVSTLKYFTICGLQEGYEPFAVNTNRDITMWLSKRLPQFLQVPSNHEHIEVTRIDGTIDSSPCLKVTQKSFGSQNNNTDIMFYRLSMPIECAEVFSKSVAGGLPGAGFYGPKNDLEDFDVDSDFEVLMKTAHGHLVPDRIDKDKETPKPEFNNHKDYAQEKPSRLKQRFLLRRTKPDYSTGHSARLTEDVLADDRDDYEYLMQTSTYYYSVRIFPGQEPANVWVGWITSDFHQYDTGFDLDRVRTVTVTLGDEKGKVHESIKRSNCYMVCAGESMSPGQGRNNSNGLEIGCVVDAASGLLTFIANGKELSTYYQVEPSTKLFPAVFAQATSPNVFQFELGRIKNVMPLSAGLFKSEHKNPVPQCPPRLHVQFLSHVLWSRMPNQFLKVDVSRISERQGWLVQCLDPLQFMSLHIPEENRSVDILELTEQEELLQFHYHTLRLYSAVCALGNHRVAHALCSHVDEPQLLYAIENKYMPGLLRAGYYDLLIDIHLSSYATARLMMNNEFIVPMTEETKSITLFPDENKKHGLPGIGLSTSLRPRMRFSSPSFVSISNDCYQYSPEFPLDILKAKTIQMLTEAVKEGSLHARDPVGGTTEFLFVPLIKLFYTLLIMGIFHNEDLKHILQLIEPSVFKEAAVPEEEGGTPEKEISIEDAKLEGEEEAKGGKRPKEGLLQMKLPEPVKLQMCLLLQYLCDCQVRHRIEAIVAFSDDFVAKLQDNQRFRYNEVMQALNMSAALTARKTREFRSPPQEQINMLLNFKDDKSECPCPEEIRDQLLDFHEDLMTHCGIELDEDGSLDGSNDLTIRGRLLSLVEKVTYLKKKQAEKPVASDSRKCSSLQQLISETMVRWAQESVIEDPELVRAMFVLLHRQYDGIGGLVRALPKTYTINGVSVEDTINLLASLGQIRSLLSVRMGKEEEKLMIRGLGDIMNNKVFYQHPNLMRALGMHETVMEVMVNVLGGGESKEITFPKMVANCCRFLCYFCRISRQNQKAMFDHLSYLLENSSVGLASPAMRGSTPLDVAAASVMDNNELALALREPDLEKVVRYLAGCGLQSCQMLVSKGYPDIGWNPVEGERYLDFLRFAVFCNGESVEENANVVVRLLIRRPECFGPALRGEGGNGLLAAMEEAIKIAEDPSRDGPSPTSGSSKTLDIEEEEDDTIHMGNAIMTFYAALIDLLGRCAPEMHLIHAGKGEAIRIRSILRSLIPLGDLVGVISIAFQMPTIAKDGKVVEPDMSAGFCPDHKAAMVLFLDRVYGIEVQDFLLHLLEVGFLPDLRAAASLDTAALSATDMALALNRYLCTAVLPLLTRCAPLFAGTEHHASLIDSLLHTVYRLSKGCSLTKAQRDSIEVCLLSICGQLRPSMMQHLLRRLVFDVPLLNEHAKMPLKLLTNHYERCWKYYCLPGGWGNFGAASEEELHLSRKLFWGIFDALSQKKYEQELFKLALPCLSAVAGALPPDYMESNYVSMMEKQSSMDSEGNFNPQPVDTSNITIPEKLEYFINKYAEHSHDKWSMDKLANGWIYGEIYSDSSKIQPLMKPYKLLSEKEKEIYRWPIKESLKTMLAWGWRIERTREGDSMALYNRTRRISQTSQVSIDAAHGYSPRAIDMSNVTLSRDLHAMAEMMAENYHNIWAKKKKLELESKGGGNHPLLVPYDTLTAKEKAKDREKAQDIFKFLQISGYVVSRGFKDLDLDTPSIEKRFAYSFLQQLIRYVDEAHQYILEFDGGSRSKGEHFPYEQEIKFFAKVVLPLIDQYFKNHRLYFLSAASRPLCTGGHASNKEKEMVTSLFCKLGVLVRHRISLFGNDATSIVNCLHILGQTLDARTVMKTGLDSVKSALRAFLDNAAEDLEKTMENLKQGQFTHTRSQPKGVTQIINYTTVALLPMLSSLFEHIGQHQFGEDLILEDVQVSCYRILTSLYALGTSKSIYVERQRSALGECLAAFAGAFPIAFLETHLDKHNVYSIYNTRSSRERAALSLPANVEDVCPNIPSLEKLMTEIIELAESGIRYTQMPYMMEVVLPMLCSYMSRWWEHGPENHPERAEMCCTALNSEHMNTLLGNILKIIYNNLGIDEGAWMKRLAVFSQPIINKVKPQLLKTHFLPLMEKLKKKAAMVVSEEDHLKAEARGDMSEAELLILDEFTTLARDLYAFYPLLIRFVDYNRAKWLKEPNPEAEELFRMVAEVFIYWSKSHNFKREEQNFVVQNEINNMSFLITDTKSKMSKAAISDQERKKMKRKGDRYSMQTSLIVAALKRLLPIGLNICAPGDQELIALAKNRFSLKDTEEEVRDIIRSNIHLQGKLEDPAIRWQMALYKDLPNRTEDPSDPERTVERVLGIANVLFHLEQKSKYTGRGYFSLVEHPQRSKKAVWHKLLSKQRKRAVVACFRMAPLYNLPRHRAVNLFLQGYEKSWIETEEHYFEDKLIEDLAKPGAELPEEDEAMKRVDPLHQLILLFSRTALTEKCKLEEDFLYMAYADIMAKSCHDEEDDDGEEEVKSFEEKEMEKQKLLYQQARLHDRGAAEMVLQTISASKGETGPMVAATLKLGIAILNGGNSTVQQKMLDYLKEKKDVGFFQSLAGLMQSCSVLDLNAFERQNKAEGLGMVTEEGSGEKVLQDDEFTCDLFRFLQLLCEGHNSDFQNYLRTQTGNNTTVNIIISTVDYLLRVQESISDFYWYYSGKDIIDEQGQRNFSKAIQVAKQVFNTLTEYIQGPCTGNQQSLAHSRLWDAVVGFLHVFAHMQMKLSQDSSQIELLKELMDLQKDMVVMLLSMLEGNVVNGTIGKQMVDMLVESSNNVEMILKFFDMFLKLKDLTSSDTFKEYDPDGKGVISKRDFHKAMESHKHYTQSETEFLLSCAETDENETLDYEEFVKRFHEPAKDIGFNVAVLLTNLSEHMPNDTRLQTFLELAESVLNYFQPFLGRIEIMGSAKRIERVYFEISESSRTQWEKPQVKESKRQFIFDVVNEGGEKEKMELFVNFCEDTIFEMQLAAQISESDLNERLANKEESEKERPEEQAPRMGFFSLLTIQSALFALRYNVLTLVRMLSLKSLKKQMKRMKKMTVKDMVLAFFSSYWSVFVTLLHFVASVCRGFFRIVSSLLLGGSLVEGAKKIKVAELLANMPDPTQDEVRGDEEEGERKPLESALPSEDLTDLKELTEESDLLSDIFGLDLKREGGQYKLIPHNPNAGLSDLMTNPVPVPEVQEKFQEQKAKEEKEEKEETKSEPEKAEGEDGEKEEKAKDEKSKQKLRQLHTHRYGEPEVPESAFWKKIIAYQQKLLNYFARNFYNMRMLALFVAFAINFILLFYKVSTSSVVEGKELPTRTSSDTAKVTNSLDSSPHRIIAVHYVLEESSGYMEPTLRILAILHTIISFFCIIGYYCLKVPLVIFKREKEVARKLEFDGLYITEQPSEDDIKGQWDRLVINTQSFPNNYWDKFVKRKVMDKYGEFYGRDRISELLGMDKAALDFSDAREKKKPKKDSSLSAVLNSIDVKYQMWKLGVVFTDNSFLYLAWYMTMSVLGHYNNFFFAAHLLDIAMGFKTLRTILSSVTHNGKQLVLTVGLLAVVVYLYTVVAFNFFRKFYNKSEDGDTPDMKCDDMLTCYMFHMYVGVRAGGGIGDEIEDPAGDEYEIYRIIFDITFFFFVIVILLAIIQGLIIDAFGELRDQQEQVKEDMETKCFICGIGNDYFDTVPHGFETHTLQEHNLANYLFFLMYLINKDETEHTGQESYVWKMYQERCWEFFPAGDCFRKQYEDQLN
UniProt O70468: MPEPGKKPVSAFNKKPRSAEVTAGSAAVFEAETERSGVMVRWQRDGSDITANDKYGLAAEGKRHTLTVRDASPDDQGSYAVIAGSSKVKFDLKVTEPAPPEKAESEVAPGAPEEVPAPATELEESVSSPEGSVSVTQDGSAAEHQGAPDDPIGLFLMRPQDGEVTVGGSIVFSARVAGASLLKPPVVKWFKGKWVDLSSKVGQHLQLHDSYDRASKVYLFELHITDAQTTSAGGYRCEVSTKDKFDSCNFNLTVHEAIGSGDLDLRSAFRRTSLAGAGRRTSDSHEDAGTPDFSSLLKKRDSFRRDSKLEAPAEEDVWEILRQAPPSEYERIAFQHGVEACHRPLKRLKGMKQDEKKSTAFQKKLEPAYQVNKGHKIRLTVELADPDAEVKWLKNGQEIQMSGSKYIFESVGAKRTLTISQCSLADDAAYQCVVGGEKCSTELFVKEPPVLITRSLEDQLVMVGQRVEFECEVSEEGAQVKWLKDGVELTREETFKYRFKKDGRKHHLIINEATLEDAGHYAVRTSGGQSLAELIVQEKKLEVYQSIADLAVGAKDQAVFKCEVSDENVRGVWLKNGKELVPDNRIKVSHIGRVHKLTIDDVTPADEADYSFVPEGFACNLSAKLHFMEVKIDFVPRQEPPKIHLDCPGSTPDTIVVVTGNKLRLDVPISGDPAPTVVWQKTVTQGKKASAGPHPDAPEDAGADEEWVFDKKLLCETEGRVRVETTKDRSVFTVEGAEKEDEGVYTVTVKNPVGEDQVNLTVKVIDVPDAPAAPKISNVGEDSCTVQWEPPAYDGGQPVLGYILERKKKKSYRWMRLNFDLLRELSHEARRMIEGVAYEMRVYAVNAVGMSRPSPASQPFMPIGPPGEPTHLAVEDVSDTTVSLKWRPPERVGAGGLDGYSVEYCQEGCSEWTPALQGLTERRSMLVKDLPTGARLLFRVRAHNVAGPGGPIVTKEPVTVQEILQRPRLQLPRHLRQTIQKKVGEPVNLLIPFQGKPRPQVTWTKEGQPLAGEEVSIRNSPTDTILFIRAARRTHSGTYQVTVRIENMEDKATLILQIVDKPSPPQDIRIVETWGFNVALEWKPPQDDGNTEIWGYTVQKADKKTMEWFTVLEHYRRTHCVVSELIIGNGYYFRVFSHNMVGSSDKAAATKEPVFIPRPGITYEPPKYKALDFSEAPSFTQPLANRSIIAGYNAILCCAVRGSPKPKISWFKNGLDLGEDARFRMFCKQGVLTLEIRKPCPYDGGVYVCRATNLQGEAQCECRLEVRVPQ

Target: endogenous RYR2 of wild-type cardiomyocytes (mouse (control is MYBPC3 KO mice)) (UniProt E9Q401)
Assay: proximity ligation assay in cardiomyocytes (FIGS. 2C and 2D)

## endogenous MYBPC3 of wild-type cardiomyocytes (from UniProt O70468 1-1270)
  binding: binds
